# Experimental data: EP4813384A1, “COMBINED PHARMACEUTICAL PREPARATION OF TAFAMIDIS OR PHARMACEUTICALLY ACCEPTABLE SALT THEREOF AND PROLINE HYDROXYLASE INHIBITOR” (Huaya Jiyuan (Shenzhen) Pharmaceutical Co., Ltd., priority 2024, dated 2025)
# At least one compound was matched to its structure with a doubt left.
# Tested on: rats with renal anemia
# Assay: Cisplatin-induced renal anemia rat model
# Format: in vivo, Male Sprague-Dawley (SD) rats
# Conditions: roxadustat 5 mg/kg/day for four weeks
# Description: Male Sprague-Dawley (SD) rats are allowed a one-week acclimation period, after which cisplatin (6 mg/kg) is administered through tail vein injection. A second injection is given one week later. Two weeks after the first administration, successful establishment of a renal disease model is confirmed by measuring serum creatinine and urea levels. The successfully modeled rats are randomly divided into three groups: cisplatin group (n = 6), 5 mg/kg roxadustat group (n = 6), and 5 mg/kg roxadustat + 10 mg/kg tafamidis group (n = 6), with continuous administration for 4 weeks. A solvent is administered to the normal control group (n = 7) and the cisplatin group based on the same drug administration regimen. After drug administration, blood analysis is performed once per week using a Mindray automated hematology analyzer (BC-5150). After sample collection, the rats are euthanized. Statistical significance is determined by one-way analysis of variance (ANOVA), and then a Dunnett's test is performed for comparison with the cisplatin group (*P < 0.05, **P < 0.01, ***P < 0.001).
structure (smiles),measurement,value
Cc1nc(C(=O)NCC(=O)O)c(O)c2ccc(Oc3ccccc3)cc12 [roxadustat],hemoglobin concentration (HGB) in contrast with the cisplatin group,does not produce a significant increase
same,red blood cell count (RBC) in contrast with the cisplatin group,does not produce a significant increase
